Measured values reported in PMC7571625.
No constants are given. Whether binding was seen depends on the method and setting. Binding seen in cells or lysates may run through a third protein. Binding calls can cover weak binding; strength is not graded here.

Tests used:
[1] = biological target: RAB11 (human (endogenous in HEK293)); assay: co-IP; HEK293 cells with or without ANXA6 knockdown, transfected with pcDNA3.1-ATG9A, starved with EBSS; lysates in IP buffer incubated with RAB5 or RAB11 antibodies overnight at 4°C; immunoblotting
[2] = biological target: RAB5 (human (endogenous in HEK293)); assay: as above

- binding [1]: binds
- binding [2]: binds
B1: ATG9A (autophagy-related 9A), from pcDNA3.1-ATG9A (protein, UniProt Q7Z3C6 1-839)
chain: MAQFDTEYQRLEASYSDSPPGEEDLLVHVAEGSKSPWHHIENLDLFFSRVYNLHQKNGFTCMLIGEIFELMQFLFVVAFTTFLVSCVDYDILFANKMVNHSLHPTEPVKVTLPDAFLPAQVCSARIQENGSLITILVIAGVFWIHRLIKFIYNICCYWEIHSFYLHALRIPMSALPYCTWQEVQARIVQTQKEHQICIHKRELTELDIYHRILRFQNYMVALVNKSLLPLRFRLPGLGEAVFFTRGLKYNFELILFWGPGSLFLNEWSLKAEYKRGGQRLELAQRLSNRILWIGIANFLLCPLILIWQILYAFFSYAEVLKREPGALGARCWSLYGRCYLRHFNELEHELQSRLNRGYKPASKYMNCFLSPLLTLLAKNGAFFAGSILAVLIALTIYDEDVLAVEHVLTTVTLLGVTVTVCRSFIPDQHMVFCPEQLLRVILAHIHYMPDHWQGNAHRSQTRDEFAQLFQYKAVFILEELLSPIVTPLILIFCLRPRALEIIDFFRNFTVEVVGVGDTCSFAQMDVRQHGHPQWLSAGQTEASVYQQAEDGKTELSLMHFAITNPGWQPPRESTAFLGFLKEQVQRDGAAASLAQGGLLPENALFTSIQSLQSESEPLSLIANVVAGSSCRGPPLPRDLQGSRHRAEVASALRSFSPLQPGQAPTGRAHSTMTGSGVDARTASSGSSVWEGQLQSLVLSEYASTEMSLHALYMHQLHKQQAQAEPERHVWHRRESDESGESAPDEGGEGARAPQSIPRSASYPCAAPRPGAPETTALHGGFQRRYGGITDPGTVPRVPSHFSRLPLGGWAEDGQSASRHPEPVPEEGSEDELPPQVHKV
